Earlier results as cited in patent US20240308878A1, “WATER TREATMENT SYSTEM, WATER TREATMENT METHOD, AND AMINE SOLUTION” (KABUSHIKI KAISHA TOSHIBA, priority 2023, published 2024).
Some entries share one result that the patent states for a list of compounds.

Conditions: at room temperature; cited from earlier work

## CC(C)NC(C)C [diisopropylamine]
  vapor pressure: ≥ 1 Torr
